From article PMC9065076
These are yes or no findings as the source states them, for the method shown. In cells and extracts the contact can be indirect. Some binding calls cover weakened binding; strength is not graded here. For part of these data: Sequences can lack the tags named with a protein.

By UniProt entry, the sequences of proteins in these tests, tags left out. Where a name states a change or a piece, a line headed by the entry shows the natural chain unless it says otherwise. Residues count along the entry.
UniProt P48736: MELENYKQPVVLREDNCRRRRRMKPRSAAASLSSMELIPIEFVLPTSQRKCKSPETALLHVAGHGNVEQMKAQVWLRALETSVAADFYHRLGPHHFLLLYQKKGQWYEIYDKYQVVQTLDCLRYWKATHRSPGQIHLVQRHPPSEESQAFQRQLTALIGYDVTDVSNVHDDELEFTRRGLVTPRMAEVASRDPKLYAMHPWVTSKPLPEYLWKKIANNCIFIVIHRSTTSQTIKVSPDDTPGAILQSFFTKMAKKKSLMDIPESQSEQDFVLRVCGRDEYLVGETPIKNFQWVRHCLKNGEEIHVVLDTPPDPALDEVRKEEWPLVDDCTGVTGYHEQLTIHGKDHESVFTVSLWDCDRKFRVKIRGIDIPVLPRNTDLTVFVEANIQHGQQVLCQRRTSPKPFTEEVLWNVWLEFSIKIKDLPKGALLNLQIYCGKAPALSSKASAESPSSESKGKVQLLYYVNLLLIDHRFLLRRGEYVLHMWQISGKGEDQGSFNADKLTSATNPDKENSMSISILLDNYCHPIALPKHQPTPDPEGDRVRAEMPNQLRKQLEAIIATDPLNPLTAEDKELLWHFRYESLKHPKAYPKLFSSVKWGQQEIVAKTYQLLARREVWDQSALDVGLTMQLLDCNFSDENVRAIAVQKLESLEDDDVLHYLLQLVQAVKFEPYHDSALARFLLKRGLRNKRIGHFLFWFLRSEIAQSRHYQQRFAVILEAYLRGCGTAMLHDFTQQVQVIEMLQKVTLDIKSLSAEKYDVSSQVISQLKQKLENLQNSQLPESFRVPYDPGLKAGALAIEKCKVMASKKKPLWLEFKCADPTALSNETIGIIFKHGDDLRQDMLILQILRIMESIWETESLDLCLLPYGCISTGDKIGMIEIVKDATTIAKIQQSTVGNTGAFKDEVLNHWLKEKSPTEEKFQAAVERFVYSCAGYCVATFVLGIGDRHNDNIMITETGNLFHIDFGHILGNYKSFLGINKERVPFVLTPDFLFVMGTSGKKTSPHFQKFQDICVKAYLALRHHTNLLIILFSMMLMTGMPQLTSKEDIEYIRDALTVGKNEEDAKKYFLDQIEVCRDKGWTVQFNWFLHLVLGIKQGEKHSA
GST-p110γ_(1-216): residues 1-216 of P48736
UniProt Q96AM1: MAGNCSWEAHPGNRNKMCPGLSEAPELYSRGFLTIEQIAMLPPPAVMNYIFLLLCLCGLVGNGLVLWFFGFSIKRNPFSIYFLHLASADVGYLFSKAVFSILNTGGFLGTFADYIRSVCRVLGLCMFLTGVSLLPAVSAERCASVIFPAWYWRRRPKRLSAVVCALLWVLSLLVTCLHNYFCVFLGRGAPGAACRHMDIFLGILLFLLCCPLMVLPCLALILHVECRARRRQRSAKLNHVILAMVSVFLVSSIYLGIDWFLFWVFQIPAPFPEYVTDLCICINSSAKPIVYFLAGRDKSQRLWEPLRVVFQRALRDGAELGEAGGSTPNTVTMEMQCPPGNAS
GST-MrgprF_(274-343): residues 274-343 of Q96AM1

Assays:
[1] = biological target: GST-p110γ_(1-216) (UniProt P48736); experiment: pull-down; GST, GST-MrgprF(274-343) or GST-p110γ(1-216) bound to glutathione resin, incubated with indicated total cell extracts at 4 °C overnight; immunoblot; only the target purified
[2] = biological target: Flag-tagged p110γ (UniProt P48736); experiment: co-IP; tagged constructs in pCDNA3.1+ transfected into HEK-293T; cell lysates immunoprecipitated with Flag, Myc or HA antibodies; immunoblot; in Fig. 4f with or without forced expression of MrgprF
[3] = biological target: endogenous p110γ (human (endogenous in CM cells)) (UniProt P48736); experiment: co-IP; endogenous proteins in CM and other types of tumor cells; immunoblot
[4] = biological target: GST-MrgprF_(274-343) (human) (UniProt Q96AM1); experiment: pull-down; GST, GST-MrgprF(274-343) or GST-p110γ(1-216) bound to glutathione resin, incubated with indicated total cell extracts at 4 °C overnight; immunoblot; only the target purified
[5] = biological target: Flag-tagged p110γ (UniProt P48736); experiment: co-IP; competition co-IP: extracts of HEK-293T transfected with p110γ-Flag and HA-p101 divided; GST-MrgprF fragment (100, 200, 300 nM) or GST (100, 200 nM) added

MrgprF in total cell extracts (prey of the GST pull-down) (from UniProt Q96AM1 1-343) (receptor)
binding [1]: binds

Myc-tagged MrgprF (from UniProt Q96AM1 1-343) (receptor)
binding [2]: binds

endogenous MrgprF (from UniProt Q96AM1 1-343) (receptor)
binding [3]: binds

p110γ in total cell extracts (prey of the GST pull-down) (from UniProt P48736 1-1102) (enzyme)
binding [4]: binds

B1: HA-p101 (protein, UniProt Q8WYR1 1-880)
chain: MQPGATTCTEDRIQHALERCLHGLSLSRRSTSWSAGLCLNCWSLQELVSRDPGHFLILLEQILQKTREVQEKGTYDLLTPLALLFYSTVLCTPHFPPDSDLLLKAASTYHRFLTWPVPYCSICQELLTFIDAELKAPGISYQRLVRAEQGLPIRSHRSSTVTVLLLNPVEVQAEFLAVANKLSTPGHSPHSAYTTLLLHAFQATFGAHCDVPGLHCRLQAKTLAELEDIFTETAEAQELASGIGDAAEARRWLRTKLQAVGEKAGFPGVLDTAKPGKLHTIPIPVARCYTYSWSQDSFDILQEILLKEQELLQPGILGDDEEEEEEEEEVEEDLETDGHCAERDSLLSTSSLASHDSTLSLASSQASGPALSRHLLTSFVSGLSDGMDSGYVEDSEESSSEWPWRRGSQERRGHRRPGQKFIRIYKLFKSTSQLVLRRDSRSLEGSSDTALPLRRAGSLCSPLDEPVSPPSRAQRSRSLPQPKLGTQLPSWLLAPASRPQRRRPFLSGDEDPKASTLRVVVFGSDRISGKVARAYSNLRRLENNRPLLTRFFKLQFFYVPVKRSHGTSPGACPPPRSQTPSPPTDSPRHASPGELGTTPWEESTNDISHYLGMLDPWYERNVLGLMHLPPEVLCQQSLKAEAQALEGSPTQLPILADMLLYYCRFAARPVLLQVYQTELTFITGEKTTEIFIHSLELGHSAATRAIKASGPGSKRLGIDGDREAVPLTLQIIYSKGAISGRSRWSNLEKVCTSVNLNKACRKQEELDSSMEALTLNLTEVVKRQNSKSKKGFNQISTSQIKVDKVQIIGSNSCPFAVCLDQDERKILQSVVRCEVSPCYKPEKSDLSSPPQTPPDLPAQAAPDLCSLLCLPIMTFSGALP
binding [5]: binds
binding [2]: binds
